Taken from: PubChem BioAssay AID1508597 (Cure First, 2020)
The whole screen tested about 2,100 reagents; this is a part drawn at random. 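Calls flag viability under 80% in either arm, not effects specific to rucaparib; the reference for percent is not stated.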 Entries without a mark were called inactive. The record does not give: the 100% reference.

Aim: 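Genes whose silencing sensitises or protects ovarian cancer cells against rucaparib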 (primary screen)
Cells: human ovarian carcinoma lines grown from tumours: OCI-P5x (papillary serous) and OCI-C5x (clear cell)
Knock-down reagent: siRNA pool against human genes, 1.25 pmol siRNA per well
Time to read-out: 72 h or 96 h, depending on the cell culture
Conditions: rucaparib 20 µM (about IC30) or vehicle, present until read-out
Measurement: 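ATP luminescence measured at 72 or 96 h according to the culture, then normalised and expressed as percent viability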
Direction: viability, normalised: higher = more viable cells remaining
Hit rule: 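Active when normalised viability falls below 80 percent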
Meaning of the calls: active = viability under 80%; inactive = viability 80% or more

no.	target	rucaparib or vehicle	cell line	technical replicate	viability, normalised (%)
1	HHEX	Rucaparib	OCI-C5x (clear cell)	1	67.7 (active)
2	HHEX	Rucaparib	OCI-C5x (clear cell)	2	57.1 (active)
3	HHEX	Rucaparib	OCI-C5x (clear cell)	3	48 (active)
4	HHEX	Rucaparib	OCI-P5x (serous)	1	76.8 (active)
5	HHEX	Rucaparib	OCI-P5x (serous)	2	70.8 (active)
6	HHEX	Rucaparib	OCI-P5x (serous)	3	78.6 (active)
7	HHEX	Vehicle	OCI-C5x (clear cell)	1	91.9
8	HHEX	Vehicle	OCI-C5x (clear cell)	2	54.4 (active)
9	HHEX	Vehicle	OCI-C5x (clear cell)	3	92.9
10	HHEX	Vehicle	OCI-P5x (serous)	1	70.9 (active)
11	HHEX	Vehicle	OCI-P5x (serous)	2	75 (active)
12	HHEX	Vehicle	OCI-P5x (serous)	3	80.4
13	PIP5K1B	Rucaparib	OCI-C5x (clear cell)	1	41.7 (active)
14	PIP5K1B	Rucaparib	OCI-C5x (clear cell)	2	32.3 (active)
15	PIP5K1B	Rucaparib	OCI-C5x (clear cell)	3	44.8 (active)
16	PIP5K1B	Rucaparib	OCI-P5x (serous)	1	78.5 (active)
17	PIP5K1B	Rucaparib	OCI-P5x (serous)	2	49.7 (active)
18	PIP5K1B	Rucaparib	OCI-P5x (serous)	3	63.3 (active)
19	PIP5K1B	Vehicle	OCI-C5x (clear cell)	1	51.4 (active)
20	PIP5K1B	Vehicle	OCI-C5x (clear cell)	2	40.8 (active)
21	PIP5K1B	Vehicle	OCI-C5x (clear cell)	3	23.7 (active)
22	PIP5K1B	Vehicle	OCI-P5x (serous)	1	70.5 (active)
23	PIP5K1B	Vehicle	OCI-P5x (serous)	2	56.2 (active)
24	PIP5K1B	Vehicle	OCI-P5x (serous)	3	56.3 (active)

A portion of the results above:
no.	target	rucaparib or vehicle	cell line	technical replicate	viability, normalised (%)
3	HHEX	Rucaparib	OCI-C5x (clear cell)	3	48 (active)
4	HHEX	Rucaparib	OCI-P5x (serous)	1	76.8 (active)
